Data published in US20230044278A1.
Results are given in words; binding and its absence hold for the method and conditions named. Some results given as binding are weak or reduced against the parent protein; the word gives no strength.

Legend:
[1] = molecular target: recombinant cynomolgus monkey (Macaca fascicularis) transferrin receptor 1 (cynomolgus monkey (Macaca fascicularis)); experiment: ELISA before and after 9 days at high temperature
[2] = molecular target: recombinant cynomolgus monkey (Macaca fascicularis) transferrin receptor 1 (cynomolgus monkey (Macaca fascicularis)); experiment: ELISA, 230 pM to 500 nM of the Fab
[3] = molecular target: recombinant cynomolgus monkey (Macaca fascicularis) transferrin receptor 1 (cynomolgus monkey (Macaca fascicularis)); experiment: ELISA, plate-coated recombinant TfR1
[4] = molecular target: recombinant cynomolgus monkey (Macaca fascicularis) transferrin receptor 1 (cynomolgus monkey (Macaca fascicularis)); experiment: ELISA on plate-coated recombinant cynomolgus TfR1, fluorescent anti-(H+L) IgG secondary, relative fluorescent units

Binder	binding [1]	binding [2]	binding [3]	binding [4]
humanized anti-TfR Fab 5H12 (VH5-C33D/Vk4) (Fab, V domains shown) VH: QVQLVQSGAEVKKPGASVKVSCKASGYSFTDYDINWVRQAPGQGLEWMGWIYPGSGNTRYSERFKGRVTITRDTSASTAYMELSSLRSEDTAVYYCAREDYYPYHGMDYWGQGTLVTVSS VL: DIVMTQSPDSLAVSLGERATINCRASESVDGYDNSFMHWYQQKPGQPPKLLIFRASNLESGVPDRFSGSGSGTDFTLTISSLQAEDVAVYYCQQSSEDPWTFGQGTKLEIKR	binds			
humanized anti-TfR Fab 3M12 (VH3/Vk2) (Fab, V domains shown) VH: QVQLQESGPGLVKPSQTLSLTCSVTGYSITSGYYWNWIRQPPGKGLEWMGYITFDGANNYNPSLKNRVSISRDTSKNQFSLKLSSVTAEDTATYYCTRSSYDYDVLDYWGQGTTVTVSS VL: DIQMTQSPSSLSASVGDRVTITCRASQDISNFLNWYQQKPGQPVKLLIYYTSRLHSGVPSRFSGSGSGTDFTLTISSLQPEDFATYFCQQGHTLPYTFGQGTKLEIKR	binds		binds	
humanized anti-TfR Fab 3M12 (VH3/Vk3) (Fab, V domains shown) VH: QVQLQESGPGLVKPSQTLSLTCSVTGYSITSGYYWNWIRQPPGKGLEWMGYITFDGANNYNPSLKNRVSISRDTSKNQFSLKLSSVTAEDTATYYCTRSSYDYDVLDYWGQGTTVTVSS VL: DIQMTQSPSSLSASVGDRVTITCRASQDISNFLNWYQQKPGQPVKLLIYYTSRLHSGVPSRFSGSGSGTDFTLTISSLQPEDFATYYCQQGHTLPYTFGQGTKLEIKR	binds		binds	

More lines, now with the values ahead:

binding [1]	binding [2]	binding [3]	binding [4]	Binder
binds				humanized anti-TfR Fab 5H12 (VH5-C33Y/Vk3) (Fab, V domains shown) VH: QVQLVQSGAEVKKPGASVKVSCKASGYSFTDYYINWVRQAPGQGLEWMGWIYPGSGNTRYSERFKGRVTITRDTSASTAYMELSSLRSEDTAVYYCAREDYYPYHGMDYWGQGTLVTVSS VL: DIVLTQSPDSLAVSLGERATINCRASESVDGYDNSFMHWYQQKPGQPPKLLIFRASNLESGVPDRFSGSGSRTDFTLTISSLQAEDVAVYYCQQSSEDPWTFGQGTKLEIKR
binds				humanized anti-TfR Fab 5H12 (VH5-C33Y/Vk4) (Fab, V domains shown) VH: QVQLVQSGAEVKKPGASVKVSCKASGYSFTDYYINWVRQAPGQGLEWMGWIYPGSGNTRYSERFKGRVTITRDTSASTAYMELSSLRSEDTAVYYCAREDYYPYHGMDYWGQGTLVTVSS VL: DIVMTQSPDSLAVSLGERATINCRASESVDGYDNSFMHWYQQKPGQPPKLLIFRASNLESGVPDRFSGSGSGTDFTLTISSLQAEDVAVYYCQQSSEDPWTFGQGTKLEIKR
binds	binds	binds	binds	humanized anti-TfR Fab 3M12 (VH4/Vk3) (Fab, V domains shown) VH: QVQLQESGPGLVKPSQTLSLTCTVTGYSITSGYYWNWIRQPPGKGLEWIGYITFDGANNYNPSLKNRVSISRDTSKNQFSLKLSSVTAEDTATYYCTRSSYDYDVLDYWGQGTTVTVSS VL: DIQMTQSPSSLSASVGDRVTITCRASQDISNFLNWYQQKPGQPVKLLIYYTSRLHSGVPSRFSGSGSGTDFTLTISSLQPEDFATYYCQQGHTLPYTFGQGTKLEIKR
binds		binds		humanized anti-TfR Fab 3M12 (VH4/Vk2) (Fab, V domains shown) VH: QVQLQESGPGLVKPSQTLSLTCTVTGYSITSGYYWNWIRQPPGKGLEWIGYITFDGANNYNPSLKNRVSISRDTSKNQFSLKLSSVTAEDTATYYCTRSSYDYDVLDYWGQGTTVTVSS VL: DIQMTQSPSSLSASVGDRVTITCRASQDISNFLNWYQQKPGQPVKLLIYYTSRLHSGVPSRFSGSGSGTDFTLTISSLQPEDFATYFCQQGHTLPYTFGQGTKLEIKR
